Data taken from the supplement of paper PMC11451515.

Experiments:
NOMO1 [1] = test: cell viability relative to DMSO control; higher = less cytotoxic; details: HPLM + 10% dialyzed FBS, 48 h
Method in brief: (§1)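 Viability, reported as a per-plate percentage of DMSO wells with cell-free wells as background, came from CellTiter-Glo One luminescence. Reading took place after 48 h at 37°C. Before that, NOMO1 or SEM (500 cells/well) or P12-Ichikawa (1000 cells/well) leukemia cells, adapted for at least four passages in each medium, were seeded in 1536-well plates (5 μl) and pin-dosed with library compounds in DMSO, 47 μM to 0.79 nM over 11 threefold points.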

P12-Ichikawa = test: as above; details: HPLM + 10% dialyzed FBS, 48 h
Method in brief: as §1

SEM cells = test: as above; details: 48 h
Method in brief: as §1

NOMO1 [2] = test: AUC of viability dose-response curve (% viability x log10 dose units); higher = less sensitive; details: 48 h
Method in brief: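 Viability of medium-adapted leukemia cells was measured by CellTiter-Glo One luminescence after 48 h at 37°C with library compounds in DMSO. Doses were 11 threefold steps from 47 μM to 0.79 nM, in 1536-well plates at 500 or 1000 cells/well. Signals were normalised per plate to DMSO and cell-free wells and fitted with a four-parameter log-logistic model on log10 dose. Area under the curve was integrated by trapezoidal rule, with curves exceeding full viability scaled and failed quality-control curves removed.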

Cc1nc2c(-c3cnc(N)nc3)nc(N3CCOCC3)nc2n1C(C)C
Details	AUC of viability dose-response curve, NOMO1 [2]	cell viability, NOMO1 [1] [%]	cell viability, P12-Ichikawa [%]
0.000781 µM	–	108	110
0.00234 µM	–	115	75.5
0.00702 µM	–	81.8	42.9
0.0211 µM	–	39	13.7
0.0632 µM	–	40.7	13.7
0.19 µM	–	41.2	13
0.569 µM	–	34.7	13.5
1.71 µM	–	33.9	15.7
5.12 µM	–	34.9	19.9
15.4 µM	–	33.5	19.9
46.1 µM	–	40.4	24.3
HPLM + 10% dialyzed FBS	226	–	–
RPMI 5 mM glucose + 10% FBS	188	–	–
RPMI 5 mM glucose + 10% dialyzed FBS	240	–	–

cell viability [%], SEM cells
Details	HPLM + 10% dialyzed FBS	RPMI 5 mM glucose + 10% FBS	RPMI 5 mM glucose + 10% dialyzed FBS
0.000781 µM	88.5	105	111
0.00234 µM	105	42.6	148
0.00702 µM	91.8	27.4	111
0.0211 µM	26.7	30.4	26.3
0.0632 µM	24.8	29.4	27.6
0.19 µM	24	28.3	30
0.569 µM	23.8	25	30.3
1.71 µM	27.2	26.1	31.6
5.12 µM	27.2	20.4	30.7
15.4 µM	29.2	21.7	31.4
46.1 µM	28.9	22.3	33.9
